Article PMC6721811
No constants are given. Whether binding was seen depends on the method and setting. Binding seen in cells or lysates may run through a third protein. Some binding calls cover weakened binding; strength is not graded here.

By UniProt entry, the sequences of proteins in these tests, tags left out. Residues count along the entry.
UniProt O14763, residues 56-440: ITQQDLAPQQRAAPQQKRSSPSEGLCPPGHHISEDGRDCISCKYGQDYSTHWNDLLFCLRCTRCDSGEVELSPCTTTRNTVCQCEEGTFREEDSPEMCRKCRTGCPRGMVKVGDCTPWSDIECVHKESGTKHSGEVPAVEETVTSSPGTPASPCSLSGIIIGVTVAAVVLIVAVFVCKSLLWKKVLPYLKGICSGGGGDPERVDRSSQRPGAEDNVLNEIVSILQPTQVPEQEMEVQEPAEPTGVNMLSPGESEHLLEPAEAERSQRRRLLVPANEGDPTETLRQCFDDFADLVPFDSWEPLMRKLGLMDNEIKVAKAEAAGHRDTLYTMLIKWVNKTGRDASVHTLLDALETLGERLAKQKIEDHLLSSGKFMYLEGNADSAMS
UniProt O00220, residues 24-468: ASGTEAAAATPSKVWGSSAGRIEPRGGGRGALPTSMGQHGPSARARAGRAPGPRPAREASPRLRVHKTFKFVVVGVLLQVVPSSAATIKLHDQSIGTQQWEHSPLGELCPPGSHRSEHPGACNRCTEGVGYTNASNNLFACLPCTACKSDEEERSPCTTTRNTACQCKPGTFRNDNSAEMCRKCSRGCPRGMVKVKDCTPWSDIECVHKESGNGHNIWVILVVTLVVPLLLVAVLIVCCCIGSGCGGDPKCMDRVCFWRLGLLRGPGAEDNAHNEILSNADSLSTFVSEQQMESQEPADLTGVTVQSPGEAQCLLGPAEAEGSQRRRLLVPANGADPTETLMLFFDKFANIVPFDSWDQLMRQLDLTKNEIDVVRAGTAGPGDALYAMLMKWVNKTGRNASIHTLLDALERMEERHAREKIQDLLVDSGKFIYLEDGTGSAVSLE
UniProt O14980: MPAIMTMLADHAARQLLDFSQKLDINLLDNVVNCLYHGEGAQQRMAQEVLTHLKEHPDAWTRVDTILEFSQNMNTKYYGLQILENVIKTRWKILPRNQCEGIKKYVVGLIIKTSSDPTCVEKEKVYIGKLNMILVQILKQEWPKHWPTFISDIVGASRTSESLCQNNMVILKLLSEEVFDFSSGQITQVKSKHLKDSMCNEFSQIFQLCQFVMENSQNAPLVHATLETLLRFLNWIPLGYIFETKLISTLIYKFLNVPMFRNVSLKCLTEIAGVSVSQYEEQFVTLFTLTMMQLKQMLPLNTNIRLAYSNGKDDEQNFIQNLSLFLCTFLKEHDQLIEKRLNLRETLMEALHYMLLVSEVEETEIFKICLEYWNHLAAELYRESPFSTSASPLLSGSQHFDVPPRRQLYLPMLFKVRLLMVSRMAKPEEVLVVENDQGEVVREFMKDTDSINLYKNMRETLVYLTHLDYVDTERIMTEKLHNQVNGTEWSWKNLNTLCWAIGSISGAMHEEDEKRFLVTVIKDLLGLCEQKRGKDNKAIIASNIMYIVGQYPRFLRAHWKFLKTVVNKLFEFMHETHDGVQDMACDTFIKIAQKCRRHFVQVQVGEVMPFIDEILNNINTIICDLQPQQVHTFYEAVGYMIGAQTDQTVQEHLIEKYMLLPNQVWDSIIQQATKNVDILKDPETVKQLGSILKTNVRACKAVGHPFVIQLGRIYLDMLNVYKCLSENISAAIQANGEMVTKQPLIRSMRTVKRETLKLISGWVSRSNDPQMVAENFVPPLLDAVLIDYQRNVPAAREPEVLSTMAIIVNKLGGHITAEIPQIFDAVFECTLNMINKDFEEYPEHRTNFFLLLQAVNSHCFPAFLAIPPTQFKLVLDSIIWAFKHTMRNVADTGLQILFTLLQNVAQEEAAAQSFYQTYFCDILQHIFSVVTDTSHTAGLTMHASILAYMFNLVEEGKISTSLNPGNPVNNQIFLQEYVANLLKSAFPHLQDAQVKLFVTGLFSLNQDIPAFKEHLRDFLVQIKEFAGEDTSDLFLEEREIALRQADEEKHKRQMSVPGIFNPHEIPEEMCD

Assays:
[1] = molecular target: nuclear TRAIL-R2 (human (endogenous in Panc89 and Panc-1)) (UniProt O14763); assay: co-IP; immunoprecipitation of TRAIL-R1 (Mapatumumab) or TRAIL-R2 (Lexatumumab) from nuclear extracts (1.5 mg/IP; 30 mM Tris-HCl pH 7.5, 120 mM NaCl, 1% glycerol, 0.5% NP-40) of PDAC cell lines, with RNasin or RNase A for 1 h at 37 °C; Western blot for CRM-1
[2] = molecular target: nuclear TRAIL-R1 (human (endogenous in Panc89 and Panc-1)) (UniProt O00220); assay: as above

## Exportin 1 (XPO 1)/chromosome region maintenance 1-homolog (CRM-1) (from UniProt O14980 1-1071)
[1]
  binding: binds
[2]
  binding: no binding
